Values quoted from earlier work, collected in patent US20060179492A1, “Method of inhibiting neural transmission mediated by serotonin-2a and enhancing sensorimotor gating” (The Regents of the University of California, priority 2002, published 2006).
Part of at least one peptide drawing is inferred or uncertain, most often the ends. *1 amine or outer side, *2 acyl side, *3 side chain or, on linkers, in order; H or OH if unused. Where a SMILES comes first, the peptide text is derived from it. [ ]: non-standard residue; d: D form. X1 = NCCCC[C@H](N)CN([C@@H](CCCCN)C(=O)[*:2])[*:1]; Tle = CC(C)(C)[C@H](N)C(=O)O

Protein sequences, listed by entry. Tags and fused reporters are not part of them.
UniProt P28223, whole entry: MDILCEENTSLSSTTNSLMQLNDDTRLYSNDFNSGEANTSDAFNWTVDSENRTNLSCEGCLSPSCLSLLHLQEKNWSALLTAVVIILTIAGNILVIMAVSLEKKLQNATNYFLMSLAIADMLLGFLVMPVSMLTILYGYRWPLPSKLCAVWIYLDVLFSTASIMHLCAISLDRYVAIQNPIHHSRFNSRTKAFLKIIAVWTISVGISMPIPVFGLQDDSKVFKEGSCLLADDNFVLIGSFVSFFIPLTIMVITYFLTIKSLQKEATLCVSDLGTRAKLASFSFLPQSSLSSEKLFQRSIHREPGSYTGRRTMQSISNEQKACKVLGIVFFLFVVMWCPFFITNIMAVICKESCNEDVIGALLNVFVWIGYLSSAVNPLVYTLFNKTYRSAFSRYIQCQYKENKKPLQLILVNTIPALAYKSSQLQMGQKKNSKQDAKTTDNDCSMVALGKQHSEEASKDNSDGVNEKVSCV

Target: serotonin-2A receptor (Homo sapiens, UniProt P28223)
Conditions: cited from earlier work

CCOC(=O)[C@H](CC(C)C)NC(=O)[C@@H](NC(=O)[C@H](Cc1c[nH]c2ccccc12)NC(=O)[C@@H]1CCCN1C(=O)[C@H](CCCCN)NC[C@@H](N)CCCCN)C(C)(C)C [PD149163, LysΨ(CH2NH)-Lys-Pro-Trp-tLeu-Leu-OEt] (H-[X1]PW[Tle]L-OEt)
binding to serotonin-2A receptors: neither PD149163 or NT69L bind
